Experimental data from patent US20160237414A1.
These are yes or no findings as the source states them, for the method shown. Some results given as binding are weak or reduced against the parent protein; the word gives no strength.

How the values were obtained:
[1] = molecular target: T1, Purified luminal domain LIMP-2 (ld-LIMP2) (UniProt Q14108); assay: fluorescence polarization at various ldLIMP-2 concentrations (FIG. 12)
T1 sequence (looked up): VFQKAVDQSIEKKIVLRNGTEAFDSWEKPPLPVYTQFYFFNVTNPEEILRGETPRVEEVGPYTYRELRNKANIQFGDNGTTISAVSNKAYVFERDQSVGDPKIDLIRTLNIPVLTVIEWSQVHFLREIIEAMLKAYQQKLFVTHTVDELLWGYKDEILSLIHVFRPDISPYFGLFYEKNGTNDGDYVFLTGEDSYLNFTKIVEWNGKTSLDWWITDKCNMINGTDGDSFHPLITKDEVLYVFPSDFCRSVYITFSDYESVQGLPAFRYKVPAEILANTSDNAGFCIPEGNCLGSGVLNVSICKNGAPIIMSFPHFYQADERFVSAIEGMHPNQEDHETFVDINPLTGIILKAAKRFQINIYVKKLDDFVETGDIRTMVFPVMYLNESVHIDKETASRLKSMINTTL

[2] = molecular target: T1, Purified luminal domain LIMP-2 (ld-LIMP2); assay: fluorescence polarization competition, labeled against unlabeled WT peptide (FIG. 7C)
[3] = molecular target: T1, Purified luminal domain LIMP-2 (ld-LIMP2); assay: peptide concentration giving 50% of maximal binding against ldLIMP2 concentration (FIG. 12)
[4] = molecular target: T1, Purified luminal domain LIMP-2 (ld-LIMP2); assay: competitive immunoprecipitation, peptide at 0 to 5x molar excess over GCase (FIG. 8A, 8B)
[5] = molecular target: T1, Purified luminal domain LIMP-2 (ld-LIMP2); assay: competitive immunoprecipitation, peptide at 0 to 5x molar excess over GCase, anti-LIMP-2 beads, Western blot (FIG. 8A)
[6] = molecular target: T1, Purified luminal domain LIMP-2 (ld-LIMP2); assay: fluorescence polarization, ldLIMP2 fixed at 50 nM (FIG. 7A)

**Q.** Which binding [1] does the source give for DSPIIV (fluorescent probe (FITC) covalently linked to the C terminal end) [DSPIIV (SEQ ID NO 15) GCase peptide, FITC labeled] here?
**A.** The binding was “binds”.

**Q.** And the binding [2]?
**A.** Its binding is “binds”.

**Q.** And the binding [3]?
**A.** Its binding is “binds”.

**Q.** What does the source list for DSPIIV [DSPIIV (SEQ ID NO 15) GCase peptide, unlabeled]?
**A.** binding [2]: binds; binding [4]: binds; binding [5]: binds

**Q.** How did the binding [6] turn out when DSPAIV (fluorescent probe (FITC) covalently linked to the C terminal end) [DSPAIV peptide (SEQ ID NO 17) (I402A), FITC labeled] was run?
**A.** Its binding is “binds”.

**Q.** With DSPIAV (fluorescent probe (FITC) covalently linked to the C terminal end) [DSPIAV peptide (SEQ ID NO 18) (I403A), FITC labeled] as the binder, how does the binding [6] read?
**A.** Its binding is “binds”.
